Some of the results follow. These are further read-outs of the screen, such as a control signal, another cell line or another target. No call is given for them. Compounds called inactive in the main read-out are mostly missing here. Words in brackets tell the shape of the fitted curve; partial curves, single points and poor fits give uncertain potencies.
Assay: qHTS Assay for Lipid Storage Modulators in Drosophila S3 Cells;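 as to cell number change: cells counted by Cell Tracker Red CMTPX staining in the red channel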
Details: BODIPY lipid droplet fluorescence, 18-24 h; for cell number change: measured here: cell count max response, cells fed with added oleic acid
Procedure, shortened: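 Laser-scanning cytometry quantifies lipid droplet accumulation (500–530 nm total intensity; droplet/cell object ratio) in oleic acid-fed (400 uM added) Drosophila S3 cells treated with a concentration series. 20 uM Triacsin C defined 100% inhibition.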

[1] = measured here: cell number channel AC50, cells fed with added oleic acid
[2] = measured here: lipid fluorescence (Fed channel) AC50, cells fed with added oleic acid

| Compound | cell number change | AC50 [1] | AC50 [2] |
| --- | --- | --- | --- |
| COc1ccccc1NC(=O)NC1(C(=O)N2CCOCC2)CCCCC1 | 13% | – | – |
| Cc1ccc(N2CC(O)=C(c3ccccc3)C2=N)cc1 | -6.96% | 3.66 µM [falling, single point] | 2.91 µM [falling, single point] |
| CCc1ccc2[nH]c3nc(N/N=C/c4ccc(O)cc4O)nnc3c2c1 | -48.1% | 11.6 µM [falling, single point] | 29.1 µM [falling, single point] |
| CCSc1nc(O)cc(=O)n1-c1ccc(OC)cc1 | 5.05% | – | 0.651 µM [falling, single point] |
| CC1CCN(S(=O)(=O)c2ccc3c(c2)N(CC(=O)NCCCN2CCCCC2C)C(=O)CS3)CC1 (stereo not given) | 42.2% | 29.1 µM [rising, single point] | 14.6 µM [rising, partial curve, poor fit] |
| O=C(CSCc1ccc(Cl)cc1)N1CCCCC1 | 24.8% | 0.651 µM [rising, full curve, poor fit] | 0.116 µM [rising, full curve, poor fit] |
| Cc1ccc(-c2noc(CNc3ccccc3)n2)cc1 | -38.5% | 14.6 µM [falling, single point] | 16.4 µM [falling, single point] |
| C/C(=N\N1CCN(Cc2ccc(Cl)cc2)CC1)c1ccc([N+](=O)[O-])cc1 | -50.8% | 20.6 µM [falling, single point] | 29.1 µM [falling, single point] |
| COc1ccc(C(=O)N2CCC(CCC(=O)Nc3cccc(C)c3)CC2)cc1 | 12.5% | – | 29.1 µM [falling, single point] |
| CN(C)c1ccc(/C=C/C(=O)c2ccc(O)cc2)cc1[N+](=O)[O-] | 20.5% | – | 0.0326 µM [rising, full curve, poor fit] |
| COCCCN(CCNC(=O)c1ccc(NC2=NC3CS(=O)(=O)CC3S2)cc1)Cc1ccco1 (stereo not given) | 4.01% | – | 13 µM [rising, partial curve, poor fit] |
| COc1cccc(C(=O)c2sc(NC(C)C)nc2N)c1 | -47.9% | 23.1 µM [falling, partial curve] | 23.1 µM [falling, partial curve] |
| C=CC(=O)NC1CC2CCC1(C)C2(C)C (stereo not given) | -43.3% | 29.1 µM [falling, single point] | 32.6 µM [falling, single point] |
| Cc1[nH]c2ccc(F)cc2c(=O)c1SC(F)(F)C(F)F | -21.4% | – | 1.84 µM [rising, partial curve] |
| COc1cc2c(cc1NC(=O)C(C)NCc1ccccc1)oc1ccccc12 (stereo not given) | -4.59% | – | 23.1 µM [falling, single point] |
| Cc1csc(NC(=O)C2CCCCC2)n1 | 15% | – | 29.1 µM [rising, single point] |
| Cc1csc(NC(=O)c2c(O)c3cccc4c3n(c2=O)CCC4)n1 | 0.407% | – | 0.291 µM [rising, full curve, poor fit] |
| CCCc1c(C(=O)N/N=C/c2ccc(OC)c(OCc3ccccc3)c2)nnn1-c1nonc1N | 68.3% | 29.1 µM [rising, single point] | 29.1 µM [falling, single point] |
| Cc1ccc(Cl)cc1NC(=O)Nc1c(C)n(C)n(-c2ccccc2)c1=O | – | – | 29.1 µM [falling, single point] |
| O=C(O)CSCC(=O)Nc1ccc(C(=O)O)cc1 | 7.23% | – | 23.1 µM [falling, single point] |

| Compound | cell number change | AC50 [1] | AC50 [2] |
| --- | --- | --- | --- |
| COc1ccccc1C(=O)COC(=O)CNS(=O)(=O)c1ccc(C)cc1 | 24.9% | – | – |
| CN1CCN(S(=O)(=O)c2cccc(C(=O)N(Cc3nnc(-c4ccc(Cl)cc4)o3)C3CC3)c2)CC1 | 54.2% | 14.6 µM [rising, partial curve] | – |
| COc1ccc(C(=O)Nc2ccc(Cl)cc2C(=O)NCc2ccco2)cc1OC | -27.8% | – | 2.31 µM [rising, single point] |
| CN(C)c1ccc(/C=C/C(=O)c2cccc(Br)c2)cc1 | 25.2% | – | 29.1 µM [falling, single point] |
| O=C(NCc1ccccn1)c1ccccc1-c1ccccc1 | 14.6% | – | 6.51 µM [rising, single point] |
| COC(=O)c1ccc(COc2ccc(F)cc2)o1 | -15.6% | – | 10.3 µM [falling, partial curve] |
| CCOC(=O)c1cc(-c2ccccc2)sc1NC(=O)C(C)OC(=O)c1ccncc1 (stereo not given) | 16.8% | – | 4.11 µM [rising, partial curve, poor fit] |
| COc1cc(NC(=O)COc2ccccc2)ccc1NC(=O)c1ccco1 | -9.4% | – | – |
| COc1ccc(N/C=C\C(=O)c2ccc3c(c2)OCO3)cc1 | 46.9% | 0.731 µM [rising, full curve, poor fit] | – |
| CCc1ccccc1N(CC(=O)NCC1CCCO1)C(=O)CCC(=O)Nc1nccs1 (stereo not given) | 20.6% | – | – |
| CCN(CC)CCn1c(=N)n(CC(=O)c2ccc(C)cc2)c2ccccc21 | -14.7% | – | – |
| O=C(NCCCN1CCC(Cc2ccccc2)CC1)C1CCC(=O)N1C1CCCC1 (stereo not given) | 19.3% | – | 0.0517 µM [falling, full curve, poor fit] |
| CC(C)C(NC(=O)c1ccccc1)C(=O)N1CCN(C/C=C/c2ccccc2)CC1 (stereo not given) | -19.1% | – | 29.1 µM [falling, single point] |
| O=C(CNC(=O)C12CC3CC(CC(C3)C1)C2)OCc1ccc(F)cc1Cl | -4.76% | – | 0.13 µM [falling, full curve, poor fit] |
| CCOC(=O)CC(=O)Nc1ccc(C)cc1 | 3.94% | – | 14.6 µM [rising, single point] |
| COc1cccc(OCCn2c(C)c(/C=N/n3cnnc3)c3ccccc32)c1 | -51.6% | 9.2 µM [falling, partial curve, poor fit] | 7.31 µM [falling, partial curve] |
| COc1ccccc1NS(=O)(=O)c1cccc(C(=O)NCC(c2ccco2)N(C)C)c1 (stereo not given) | 24.2% | – | – |
| CC(=O)N1C(O)CC(C)N1c1ccccc1 (stereo not given) | -66.7% | 0.58 µM [falling, full curve] | – |
| CCc1ccc(NC(=O)[C@H](C)NC(=O)C2CCN(C(=O)[C@@H](N)Cc3ccccc3)CC2)cc1 | -4.31% | – | 0.58 µM [falling, single point] |
| O=C1N=c2ccccc2=C1c1c(O)n(-c2cccc(F)c2)[nH]c1=O | – | 6.51 µM [rising, single point] | – |

| Compound | cell number change | AC50 [1] | AC50 [2] |
| --- | --- | --- | --- |
| N#C/C(=C/c1ccc(O)c(O)c1)C(=O)NCc1ccc(Cl)cc1 | -13.3% | – | 29.1 µM [falling, single point] |
| O=C(Nc1ccc(Cl)cc1)C1CCN(C(=O)c2ccco2)CC1 | 13.9% | – | – |
| COc1coc(C(O)C[N+](=O)[O-])cc1=O (stereo not given) | 2.63% | – | 0.82 µM [falling, full curve, poor fit] |
| O=S(=O)(c1ccccc1F)N1CCN(c2nc(-c3cccnc3)nc3ccccc23)CC1 | 14.1% | – | 6.51 µM [falling, single point] |
| Cc1cc(NC(=O)COC(=O)C2CCN(S(=O)(=O)c3cccc(Cl)c3Cl)CC2)no1 | -20.1% | 4.11 µM [falling, full curve, poor fit] | 23.1 µM [falling, partial curve] |
| O=C(NCCc1nnc2ccc(NCCCN3CCOCC3)nn12)c1ccccc1F | -14.1% | 4.11 µM [falling, partial curve] | – |
| CC(C)C(=O)N1CCN(c2ccc([N+](=O)[O-])cc2Cl)CC1 | 16.1% | – | – |
| COc1ccccc1C(c1nnnn1C(C)(C)C)N1CCCCCC1 (stereo not given) | -5.51% | – | 5.8 µM [rising, single point] |
| CC1CCCN(C(C(=O)Nc2ccc3c(c2)OCO3)c2ccccc2)C1 (stereo not given) | 10.3% | – | 2.06 µM [rising, single point] |
| CCNC(=O)CCC(=O)Nc1cc(Cl)ccc1C | 5.09% | – | 2.59 µM [rising, single point] |
| CCCCCCSc1cccc(-c2nc3ccc(C)cn3c2NCc2ccccc2)c1 | 17.6% | – | 0.146 µM [falling, partial curve, poor fit] |
| Cc1cccc(NC(=O)CC(C)S(=O)(=O)c2ccc3c(c2)NC(=O)CO3)c1C (stereo not given) | -9.7% | – | 3.66 µM [falling, single point] |
| O=C(CSc1nc2c(c(=O)n1-c1ccc(Cl)cc1)SCC2)Nc1ccc2c(c1)OCCO2 | – | 0.731 µM [rising, single point] | – |
| CCCCn1c(-c2ccncc2)nc2c1c(=O)[nH]c(=O)n2CC(C)C | -7.43% | – | 1.64 µM [rising, partial curve] |
| CCCCNC(=O)N(C)c1nncnc1C(=O)NC | -21.1% | – | 0.206 µM [falling, full curve] |
| CC1CCCN(c2nc(NCc3ccco3)nc(N)c2[N+](=O)[O-])C1 (stereo not given) | -33.3% | 32.6 µM [falling, single point] | – |
| Cc1ccc(C)c(S(=O)(=O)NC(CCC(N)=O)C(=O)O)c1 (stereo not given) | 4.8% | – | 0.116 µM [falling, full curve] |
| Cc1cc(C)c(OCCCCCn2ccnc2)c(C)c1 | -6.67% | – | 20.6 µM [falling, single point] |
| COc1cc(/C=C2\SC(=O)N(CC(=O)Nc3ccc(C)cc3)C2=O)cc(Cl)c1OCC(=O)O | 2.93% | – | 29.1 µM [rising, single point] |
| CCc1ccccc1NC(=O)CSC1=C(C#N)C(c2ccc3c(c2)OCO3)C2=C(CCCC2=O)N1 (stereo not given) | -2.21% | – | 0.164 µM [rising, full curve, poor fit] |

Taken from above.
AC50 [2] with COc1cc2c(cc1NC(=O)C(C)NCc1ccccc1)oc1ccccc12 (stereo not given) reads 23.1 µM [falling, single point]
AC50 [2] with CCOC(=O)CC(=O)Nc1ccc(C)cc1 reads 14.6 µM [rising, single point]
AC50 [1] with COc1ccc(N/C=C\C(=O)c2ccc3c(c2)OCO3)cc1 reads 0.731 µM [rising, full curve, poor fit]
cell number change with CCc1ccccc1N(CC(=O)NCC1CCCO1)C(=O)CCC(=O)Nc1nccs1 (stereo not given) reads 20.6%
AC50 [2] with CCSc1nc(O)cc(=O)n1-c1ccc(OC)cc1 reads 0.651 µM [falling, single point]
